The record followed here is publication doi:10.1101/2022.10.27.514150.

Protein sequences, listed by entry. Tags and fused reporters are not part of them.
UniProt Q16254: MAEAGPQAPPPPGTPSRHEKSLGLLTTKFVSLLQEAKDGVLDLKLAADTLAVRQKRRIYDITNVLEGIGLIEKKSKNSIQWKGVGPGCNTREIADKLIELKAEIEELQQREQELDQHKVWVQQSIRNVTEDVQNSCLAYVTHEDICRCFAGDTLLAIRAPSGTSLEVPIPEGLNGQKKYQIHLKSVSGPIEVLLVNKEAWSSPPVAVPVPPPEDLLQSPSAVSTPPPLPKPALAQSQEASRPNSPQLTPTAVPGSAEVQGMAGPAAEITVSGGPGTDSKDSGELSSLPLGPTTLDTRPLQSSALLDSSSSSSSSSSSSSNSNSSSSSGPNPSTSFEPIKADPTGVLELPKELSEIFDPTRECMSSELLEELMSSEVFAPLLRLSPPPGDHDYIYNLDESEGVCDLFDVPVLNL

For the assay, the target named is T1, ΔNp73α-TAP (UniProt O15350).
T1 sequence: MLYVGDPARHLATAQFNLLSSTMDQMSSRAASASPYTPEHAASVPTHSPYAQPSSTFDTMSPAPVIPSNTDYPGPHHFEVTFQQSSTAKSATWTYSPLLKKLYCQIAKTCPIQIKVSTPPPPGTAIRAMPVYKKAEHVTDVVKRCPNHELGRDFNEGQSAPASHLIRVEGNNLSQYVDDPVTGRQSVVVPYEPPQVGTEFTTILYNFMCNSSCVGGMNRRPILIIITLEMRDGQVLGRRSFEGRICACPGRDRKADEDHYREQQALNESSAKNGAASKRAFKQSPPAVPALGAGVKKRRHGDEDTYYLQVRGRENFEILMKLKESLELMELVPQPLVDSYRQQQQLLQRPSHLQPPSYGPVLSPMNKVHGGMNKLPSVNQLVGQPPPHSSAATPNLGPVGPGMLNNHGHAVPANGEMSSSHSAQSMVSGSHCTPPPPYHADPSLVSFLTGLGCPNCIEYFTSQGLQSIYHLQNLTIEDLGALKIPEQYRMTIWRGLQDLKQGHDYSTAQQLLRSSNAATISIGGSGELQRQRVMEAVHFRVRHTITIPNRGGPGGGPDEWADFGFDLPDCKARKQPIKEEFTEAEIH
The assay can be described thus: affinity purification with mass spectrometry.

No constants are given. Whether binding was seen depends on the method and setting. Binding seen in cells or lysates may run through a third protein. A yes stands for co-enrichment or nearness to the bait. Other partners may have been found.

For the substance “endogenous E2F4 (38HK) (from UniProt Q16254 1-413)”, the binding entry is “binds”.
